Experimental data reported in PubChem BioAssay AID1487 (National Center for Advancing Translational Sciences (NCATS), 2009).
Several values for one entry are separate records, joined by “and”; a condition that tells them apart may be missing. Identical values can stand only once. The list shows a part of the results. These are further read-outs of the screen, such as a control signal, another cell line or another target. No call is given for them. The list favours compounds with an active or inconclusive main result. The note in brackets gives the kind of curve behind each potency; many fits are weak.

Experiment: qHTS Assay for Modulators of Lamin A Splicing
Details: HeLa LMNA splicing GFP/RFP minigene ratio, 48 h
In short: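 S3 HeLa cells stably expressing lamin A-EGFP splicing minigene plus DsRed2, 600 cells/well, 48 h compound exposure at 37C. Laser-scanning cytometry; analysed as GFP (500-530 nm)/RFP (575-640 nm) total intensity ratio; 0.5% DMSO vehicle.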

[1] = measured here: GFP splicing reporter channel
[2] = measured here: RFP viability control channel

With Cc1cc(C(=O)OCC(=O)Nc2ccccc2)c(C)o1 the AC50 [1] was 35.5 µM [falling, single point] and the AC50 [2] was 35.5 µM [falling, single point].
For COC(=O)c1ccccc1NC(=O)/C=C/c1cc(OC)c(OC)c(OC)c1, the AC50 [2] was 25.1 µM [rising, single point].
With CC(CN1CCOCC1)C(=O)c1ccccc1 (stereo unspecified) the AC50 [2] was 31.6 µM [rising, single point].
For COc1ccc2nccc(C(=O)O)c2c1, the AC50 [2] was 14.1 µM [falling, single point].
In the case of Cc1ccc2cc3cc(C(=O)NCCCN4CCc5ccccc5C4)oc3nc2c1, the AC50 [2] is reported as 11.2 µM [rising, single point].
For Cc1ccccc1Nc1ccc(S(=O)(=O)N2CCOCC2)cc1[N+](=O)[O-], the AC50 [2] was 35.5 µM [rising, single point].
For COc1cccc(/C=N/Nc2ncnc(Cl)c2N)c1O, the AC50 [1] was 35.5 µM [falling, single point] and the AC50 [2] was 31.6 µM [falling, single point].
In the case of Cc1cc(NC(=O)CSCC(=O)N(c2cccc(Cl)c2)C(C(=O)NC2CCCCC2)c2ccc(O)c(O)c2)no1 (stereo unspecified), the AC50 [2] is reported as 28.2 µM [rising, single point].
In the case of CC1(C)CC(=O)C=C(NCCCNC2CCCCC2)C1, the AC50 [2] is reported as 6.31 µM [rising, single point].
For CN(C)c1nc(-c2ccccn2)nnc1-c1ccccc1, the AC50 [1] was 2.51 µM [rising, single point] and the AC50 [2] was 2.82 µM [rising, full curve].
With COc1ccc(/C=C/C(=O)OCC(=O)Nc2ccc(Cl)cn2)cc1 the AC50 [2] was 0.708 µM [falling, partial curve, poor fit].
For N#Cc1cc2c(nc1SCc1nc3ccccc3[nH]1)CCC2, the AC50 [2] was 0.501 µM [rising, partial curve, poor fit].
With CCSc1nc(-c2cccnc2)ccc1C#N the AC50 [1] was 2.82 µM [rising, partial curve, poor fit] and the AC50 [2] was 0.158 µM [rising, full curve].
With COc1ccc(/C=N/NC(=O)c2cc(-c3ccccc3OC(C)C)nc3ccccc23)cc1CN1CCOCC1 the AC50 [2] was 15.8 µM [rising, single point].
For c1ccc(-c2cc(-c3nnc4n3N=C(c3ccc5ccccc5c3)CS4)[nH]n2)cc1, the AC50 [1] was 35.5 µM [falling, single point].
In the case of Cc1cc(C)c(C#N)c(N2CCN(CCOc3ccc(Cl)cc3)CC2)n1, the AC50 [1] is reported as 20 µM [rising, partial curve] and the AC50 [2] is reported as 25.1 µM [rising, single point].
In the case of O=C1NS(=O)(=O)c2ccccc21, the AC50 [2] is reported as 0.00562 µM [rising, full curve, poor fit].
For COCCOC(=O)c1[nH]c2c(c1C)C(=O)CC(c1ccccc1)C2 (stereo unspecified), the AC50 [2] was 1 µM [rising, full curve].
For NS(=O)(=O)c1cc2c(cc1Cl)NC(C1CC3C=CC1C3)NS2(=O)=O (stereo unspecified), the AC50 [1] was 15.8 µM [falling, partial curve, poor fit] and the AC50 [2] was 8.91 µM [falling, partial curve, poor fit].
In the case of CN(CCC#N)c1ncnc2scc(-c3ccccc3)c12, the AC50 [2] is reported as 15.8 µM [rising, single point].
With Nc1cccc(CCc2nc3cc4ccccc4cc3[nH]2)c1 the AC50 [2] was 2.82 µM [rising, full curve].
For O=C(Nc1ccc2c(c1)OCCO2)c1ccc(Cl)c(S(=O)(=O)N2CCCCC2)c1, the AC50 [2] was 11.2 µM [rising, partial curve].
For O=C(N/N=C/c1ccccc1)c1[nH]c2ccc(Br)cc2c1-c1ccccc1, the AC50 [2] was 7.08 µM [rising, partial curve].
For Cc1ccc(S(=O)(=O)Nc2ccc3c(c2)CCCN3C(=O)c2cccs2)cc1C, the AC50 [2] was 0.0501 µM [falling, full curve, poor fit].
For CC(=O)NC1=NC(=O)/C(=C/c2cc(C)n(-c3ccc(NC(C)=O)cc3)c2C)S1, the AC50 [1] was 1 µM [falling, full curve, poor fit] and the AC50 [2] was 2.82 µM [falling, partial curve, poor fit].
With COc1ccc(CCNC2=NCCS2)cc1 the AC50 [1] was 12.6 µM [rising, single point].
With COc1ccc(NS(=O)(=O)c2ccc(NC(=O)c3ccc(CN4CCOCC4)cc3)cc2)cc1 the AC50 [1] was 4.47 µM [falling, single point] and the AC50 [2] was 1.41 µM [falling, partial curve].
With CCc1ccc(CNC(=O)c2ccc(-n3c(C)cc4c3CCC(C)C4)cc2)cc1 (stereo unspecified) the AC50 [2] was 35.5 µM [falling, single point].
For CN(Cc1nccn1C)C(=O)CC1C(=O)NCCN1CC(c1ccccc1)c1ccccc1 (stereo unspecified), the AC50 [1] was 35.5 µM [falling, single point] and the AC50 [2] was 0.00447 µM [falling, full curve, poor fit].
In the case of COc1ccc(-c2nnc(SCC(=O)NCc3cccs3)n2C(C)C)cc1, the AC50 [1] is reported as 11.2 µM [rising, partial curve, poor fit].
With CN(Cc1ccccc1)c1nc2c(c(=O)[nH]c(=O)n2C)n1CCCc1ccccc1 the AC50 [1] was 11.2 µM [rising, single point] and the AC50 [2] was 12.6 µM [rising, single point].
In the case of COc1ccc(NC(=O)CN2CCC3(O)CCCCC3C2c2cc(OC)ccc2OC)cc1 (stereo unspecified), the AC50 [2] is reported as 14.1 µM [rising, single point].
For Cn1nnnc1SCc1csc(Nc2ccccc2)n1, the AC50 [1] was 11.2 µM [rising, single point] and the AC50 [2] was 31.6 µM [rising, single point].
With O=C(CSc1nnc(COc2ccccc2)n1-c1ccccc1)c1cccs1 the AC50 [1] was 12.6 µM [rising, partial curve] and the AC50 [2] was 22.4 µM [rising, single point].
With O=C(c1ccc(Br)cc1)c1cc(-c2ccccn2)c(N2CCOCC2)s1 the AC50 [2] was 15.8 µM [rising, single point].
With COc1ccc(Cl)cc1NC(=S)Nc1ccccc1F the AC50 [1] was 0.126 µM [rising, full curve, poor fit] and the AC50 [2] was 0.00282 µM [rising, full curve].
With O=C(c1ccc2c(c1)N(Cc1cccc(Cl)c1)C(=O)c1ccccc1S2(=O)=O)N1CCN(Cc2ccccc2)CC1 the AC50 [1] was 14.1 µM [falling, partial curve] and the AC50 [2] was 8.91 µM [falling, full curve].
In the case of Clc1cc(Br)ccc1OCCCNCc1ccccc1, the AC50 [1] is reported as 25.1 µM [rising, partial curve, poor fit].
For CCCCCCc1nc2ccccc2c(=O)n1NC(=O)c1c(O)c2c(n(CC(C)C)c1=O)CCCC2, the AC50 [1] was 12.6 µM [falling, partial curve, poor fit].
In the case of CCNc1nc(NC(C)C)nc(OCCOC(=O)Nc2ccccc2)n1, the AC50 [2] is reported as 12.6 µM [rising, single point].
With Cc1cc(N(C)NC(=S)Nc2ccccc2)nc(C)n1 the AC50 [1] was 0.0501 µM [rising, full curve, poor fit] and the AC50 [2] was 10 µM [rising, partial curve].
In the case of CN(C)S(=O)(=O)c1cc(NC(=O)CSc2nn(-c3ccc(Cl)cc3)c(=S)s2)ccc1Cl, the AC50 [2] is reported as 22.4 µM [rising, single point].
With Cc1cc(C)c2nc(N3CCN(C)CC3)c(C#N)cc2c1 the AC50 [1] was 0.00398 µM [rising, full curve, poor fit].
For COc1cc(-c2noc(C3CC(=O)N(c4ccc5c(c4)OCCO5)C3)n2)cc(OC)c1OC (stereo unspecified), the AC50 [1] was 3.98 µM [falling, partial curve].
For Cc1cccc(NC(=O)Nc2ccc(C#N)cc2)n1, the AC50 [1] was 6.31 µM [rising, single point] and the AC50 [2] was 5.62 µM [rising, single point].
For CC(C)N(C(=O)CSc1nc2ccccc2c(=O)[nH]1)C(C)C, the AC50 [1] was 0.891 µM [falling, full curve, poor fit].
With COc1ccc(C(=O)COC(=O)c2ccc(NC(=O)c3ccccc3)cc2)cc1 the AC50 [1] was 28.2 µM [falling, partial curve] and the AC50 [2] was 35.5 µM [falling, single point].
For CCc1ccc(NC(=O)c2cc3c(=O)n(Cc4cccs4)ccc3nc2C)cc1, the AC50 [1] was 10 µM [rising, partial curve] and the AC50 [2] was 11.2 µM [rising, partial curve].
With COc1ccc(C(=O)Nc2ccc(-n3nncc3-c3ccc(OC)c(OC)c3)cc2)cc1 the AC50 [1] was 14.1 µM [falling, partial curve].
In the case of CCN(CC)CC(=O)Nc1c(C)cccc1C, the AC50 [1] is reported as 0.00708 µM [falling, full curve, poor fit] and the AC50 [2] is reported as 31.6 µM [rising, single point] and 4.47 µM [falling, partial curve, poor fit] and 316 nM [falling, full curve, poor fit].
For CC(C)Sc1nnc(NC(=O)C2CC2)s1, the AC50 [1] was 0.00447 µM [rising, full curve, poor fit].
In the case of COc1ccc(S(=O)(=O)N2CCOC2CNC(=O)C(=O)NCCc2ccc(OC)c(OC)c2)cc1C (stereo unspecified), the AC50 [1] is reported as 10 µM [rising, partial curve] and the AC50 [2] is reported as 12.6 µM [rising, partial curve].
In the case of Cc1ccc(-c2cn3c(n2)sc2cc(C(=O)NCCCc4ccccc4)ccc23)cc1, the AC50 [2] is reported as 0.0316 µM [falling, full curve].
In the case of COc1ccc(C(=O)Nc2cccc(/C(C)=N/NC(=O)c3ccc([N+](=O)[O-])c(C)c3)c2)cc1OC, the AC50 [2] is reported as 17.8 µM [rising, partial curve, poor fit].
For COc1ccc(NS(=O)(=O)c2ccc(NC(=O)N3CCCC3)cc2)cc1, the AC50 [1] was 0.562 µM [falling, partial curve] and the AC50 [2] was 2.82 µM [falling, partial curve].
